This experiment has as its target T1, ACDP4 (Ancient Conserved Domain Protein 4), fused to the GAL4 DNA-binding domain (pGBKT7-ACDP4) (not stated (human or mouse cDNA cloned)) (UniProt Q6P4Q7).
T1 sequence: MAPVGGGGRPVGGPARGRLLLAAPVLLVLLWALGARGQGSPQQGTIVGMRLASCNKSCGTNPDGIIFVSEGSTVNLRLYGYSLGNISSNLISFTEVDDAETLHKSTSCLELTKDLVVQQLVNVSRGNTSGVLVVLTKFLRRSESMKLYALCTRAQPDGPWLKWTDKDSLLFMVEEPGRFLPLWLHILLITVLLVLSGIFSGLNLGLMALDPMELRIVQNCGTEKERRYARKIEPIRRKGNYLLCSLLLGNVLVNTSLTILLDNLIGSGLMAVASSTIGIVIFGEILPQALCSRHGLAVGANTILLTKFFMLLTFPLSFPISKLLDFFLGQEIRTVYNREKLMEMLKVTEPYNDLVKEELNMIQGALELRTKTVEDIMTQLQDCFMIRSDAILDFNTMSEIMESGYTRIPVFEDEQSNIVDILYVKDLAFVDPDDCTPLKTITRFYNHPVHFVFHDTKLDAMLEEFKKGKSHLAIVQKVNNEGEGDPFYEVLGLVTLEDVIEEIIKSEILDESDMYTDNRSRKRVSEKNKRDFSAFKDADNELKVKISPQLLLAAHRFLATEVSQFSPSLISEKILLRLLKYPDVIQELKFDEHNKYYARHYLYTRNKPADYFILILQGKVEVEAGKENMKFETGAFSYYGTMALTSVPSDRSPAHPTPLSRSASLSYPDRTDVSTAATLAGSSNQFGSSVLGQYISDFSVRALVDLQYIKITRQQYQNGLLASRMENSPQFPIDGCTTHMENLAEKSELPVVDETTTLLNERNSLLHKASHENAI
The experiment in a line: two-hybrid; pGBKT7-ACDP4 co-transformed with pGADT7-COX11 or pGADT7-RBM30 into AH109 yeast; beta-galactosidase assay of cultures with ONPG; empty pGADT7 as control.

No constants are given. Whether binding was seen depends on the method and setting. Some binding calls cover weakened binding; strength is not graded here. Where a sequence is shown, tags or fusion partners need not be part of it.

B1: COX11, full length, fused to the GAL4 activation domain (pGADT7-COX11) (protein, UniProt Q9Y6N1 1-276)
chain: MGGLWRPGWRCVPFCGWRWIHPGSPTRAAERVEPFLRPEWSGTGGAERGLRWLGTWKRCSLRARHPALQPPRRPKSSNPFTRAQEEERRRQNKTTLTYVAAVAVGMLGASYAAVPLYRLYCQTTGLGGSAVAGHASDKIENMVPVKDRIIKISFNADVHASLQWNFRPQQTEIYVVPGETALAFYRAKNPTDKPVIGISTYNIVPFEAGQYFNKIQCFCFEEQRLNPQEEVDMPVFFYIDPEFAEDPRMIKVDLITLSYTFFEAKEGHKLPVPGYN
As to B1, the binding entry is on record as “binds”.

B2: RNA binding motif protein 30 (RBM30), full length, fused to the GAL4 activation domain (pGADT7-RBM30) (protein, UniProt Q9BQ04 1-359)
chain: MVKLFIGNLPREATEQEIRSLFEQYGKVLECDIIKNYGFVHIEDKTAAEDAIRNLHHYKLHGVNINVEASKNKSKASTKLHVGNISPTCTNQELRAKFEEYGPVIECDIVKDYAFVHMERAEDAVEAIRGLDNTEFQGKRMHVQLSTSRLRTAPGMGDQSGCYRCGKEGHWSKECPVDRTGRVADFTEQYNEQYGAVRTPYTMGYGESMYYNDAYGALDYYKRYRVRSYEAVAAAAAASAYNYAEQTMSHLPQVQSTTVTSHLNSTSVDPYDRHLLPNSGAAATSAAMAAAAATTSSYYGRDRSPLRRAAAMLPTVGEGYGYGPESELSQASAATRNSLYDMARYEREQYVDRARYSAF
Regarding B2, the binding entry is “binds”.

These data come from PMC1097757.
